Measured values published in patent US10336792B2 (priority 2014, dated 2019).
Positions of bridges follow the written chain, without caps; N, C: chain ends. Residues, ends and D or L forms follow the SMILES beside them. Groups on a side chain read outwards from the residue. Chains are numbered I, II in the order given.

Tests used:
Assay type in all cases: cell-based
[1] = system: Escherichia coli (strain DH5α); settings: MHC on hRBC / MIC E. coli
Description: (§1) Antimicrobial activity was assayed against Bacillus subtilis (strain BR151), Escherichia coli (strain DH5α) and Pseudomonas aeruginosa (strain PA01). Microdilution broth method was used to determine the minimal inhibitory concentration (MIC). A colony of bacteria was grown in LB-medium overnight at 37° C. The concentration was quantified by measuring absorbance at 600 nm and diluted to OD600=0.1 (1×10^8 CFU/mL). The samples were prepared as stock solutions of 1 mg mL^−1 in H2O and diluted serially by ⅔ in nutrient LB in a 96-well microtiterplate (Cornstar, polypropylene, untreated). The sample solutions (50 μL) were mixed with the diluted bacterial suspension with an OD600 nm of 0.001 (50 μL). […] The plates were incubated at 37° C. until satisfactory growth (18-24 h). For each test, two columns of the plate were kept for sterility control (SC, broth only) and growth control (GC, broth with bacterial inoculums, no antibiotics). 10 μL of a solution of MTT (0.1% in H2O) was added to each well. The minimal inhibitory concentration (MIC) was defined as the lowest concentration of the antimicrobial substance (peptide dendrimer) that inhibited visible growth of the tested bacteria (yellow) with the unaided eye. For microbiological study the linear peptide LysTyrLysLysAlaLeuLysLysLeuAlaLysLeuLeu (SEQ ID No. 1) was used as reference.
(§2) The AMPD library was tested for their antimicrobial activity against B. subtilis BR151, a Gram-positive bacterium and E. coli DH5α, another Gram-negative bacterium, to cover a broader spectrum of different bacteria. […] Therefore no explicit SAR can be established, but clearly the hydrophobic amino acids Ala and Tyr seem to have a significant influence in reducing activity.

[2] = system: Bacillus subtilis (strain BR151); settings: MHC on hRBC / MIC B. subtilis
Description: as §1, §2

[3] = system: Pseudomonas aeruginosa (strain PA01); settings: MHC on hRBC / MIC PAO1
Description: as §1
All peptides were tested for their activity against P. aeruginosa PAO1 in a broth dilution assay (Wiegand, I. et al., 2008, Nat. Protoc., 3, 163-75; Clinical and Laboratory Standards Institute document M7-A7 7th Edition) to determine the MIC (minimal inhibitory concentration) values. The stock solutions of the peptide dendrimers were diluted serially by ⅔ in nutrient LB in 96-well microtiter plates. Bacteria were grown in nutrient LB overnight at 37° C. After dilution the bacteria were added to the peptides and incubated overnight (18-24 h) at 37° C. […] The position of the amino acids between the branching units seems to be optimal if the hydrophobic amino acid is the first counting from C-terminus and the charged one is on the second position. Introducing Ala as additional hydrophobic amino acid reduces activity (MSt-120). […] Also assembling charged or hydrophobic sections between the branching units leads to loss of activity whereas altering L-amino acids to D-amino acids maintains activity leading to the hypothesis that the mechanism of action should not be receptor mediated.

Compound	TI (MHC/MIC), E. coli DH5α [1]	TI (MHC/MIC), B. subtilis BR151 [2]	TI (therapeutic index = MHC/MIC), P. aeruginosa PAO1 [3]
CC(C)C[C@H](NC(=O)[C@H](CC(C)C)NC(=O)[C@H](CCCCNC(=O)[C@H](CC(C)C)NC(=O)[C@H](CC(C)C)NC(=O)[C@H](CCCCNC(=O)[C@H](CCCCN)NC(=O)[C@H](CCCCN)NC(=O)[C@H](CCCCNC(=O)[C@H](CCCCN)NC(=O)[C@@H](N)CCCCN)NC(=O)[C@H](CCCCN)NC(=O)[C@@H](N)CCCCN)NC(=O)[C@H](CCCCN)NC(=O)[C@H](CCCCN)NC(=O)[C@H](CCCCNC(=O)[C@H](CCCCN)NC(=O)[C@@H](N)CCCCN)NC(=O)[C@H](CCCCN)NC(=O)[C@@H](N)CCCCN)NC(=O)[C@H](CC(C)C)NC(=O)[C@H](CC(C)C)NC(=O)[C@H](CCCCNC(=O)[C@H](CCCCN)NC(=O)[C@H](CCCCN)NC(=O)[C@H](CCCCNC(=O)[C@H](CCCCN)NC(=O)[C@@H](N)CCCCN)NC(=O)[C@H](CCCCN)NC(=O)[C@@H](N)CCCCN)NC(=O)[C@H](CCCCN)NC(=O)[C@H](CCCCN)NC(=O)[C@H](CCCCNC(=O)[C@H](CCCCN)NC(=O)[C@@H](N)CCCCN)NC(=O)[C@H](CCCCN)NC(=O)[C@@H](N)CCCCN)C(N)=O [MSt-140, (KK)8(KKK)4(KLL)2(KLL)] (I: H-KKK([Lys-Lys])KKKLLKLL-NH2 / II: H-KKK([Lys-Lys])KKKLL / III: H-KKK([Lys-Lys])KK / IV: H-KKK([Lys-Lys])KK; amide I:6-IV:C, I:9-II:C, II:6-III:C)	<1	10	
CC(C)C[C@H](NC(=O)[C@H](CC(C)C)NC(=O)[C@H](CCCCN)NC(=O)[C@H](C)NC(=O)[C@H](CC(C)C)NC(=O)[C@H](CCCCN)NC(=O)[C@H](CCCCN)NC(=O)[C@H](CC(C)C)NC(=O)[C@H](C)NC(=O)[C@H](CCCCN)NC(=O)[C@H](CCCCN)NC(=O)[C@H](Cc1ccc(O)cc1)NC(=O)[C@@H](N)CCCCN)C(N)=O [RHe-9, (KYKKALKKLAKLL), reference compound] (H-KYKKALKKLAKLL-NH2)	>419	105	
CC(C)C[C@H](NC(=O)[C@H](CCCCN)NC(=O)[C@H](CCCCNC(=O)[C@H](CC(C)C)NC(=O)[C@H](CCCCN)NC(=O)[C@H](CCCCNC(=O)[C@H](CC(C)C)NC(=O)[C@H](CCCCN)NC(=O)[C@@H](N)CCCCN)NC(=O)[C@H](CC(C)C)NC(=O)[C@H](CCCCN)NC(=O)[C@@H](N)CCCCN)NC(=O)[C@H](CC(C)C)NC(=O)[C@H](CCCCN)NC(=O)[C@H](CCCCNC(=O)[C@H](CC(C)C)NC(=O)[C@H](CCCCN)NC(=O)[C@@H](N)CCCCN)NC(=O)[C@H](CC(C)C)NC(=O)[C@H](CCCCN)NC(=O)[C@@H](N)CCCCN)C(N)=O [MSt-119, (KKL)4(KKL)2(KKL)] (I: H-KKLK([Leu-Lys-Lys])KLKKL-NH2 / II: H-KKLK([Leu-Lys-Lys])KL; amide I:7-II:C)			226
